From PubChem BioAssay AID504467 (National Center for Advancing Translational Sciences (NCATS), 2011)
Out of some 330,000 compounds screened, about 7,700 (2.3%) were called active. The shares of active, inactive and inconclusive entries below differ from those in the screen. The call rests on the fitted dose curve; in most records, active means well fitted inhibition curve with a large enough effect; inconclusive means small, poorly fitted or top-dose-only effect, or effect the other way; inactive means flat fitted curve, though single readings scatter. Potencies beside an inconclusive call are fits to weak or partial responses and may not hold up.

Experiment: qHTS screen for small molecules that inhibit ELG1-dependent DNA repair in human embryonic kidney (HEK293T) cells expressing luciferase-tagged ELG1; further: nearly all actives have a fitted effect of over 55% in size
Details: HEK293T ELG1-luciferase reporter, luminescence, 16 h, DNA damage induced by 5-fluorouridine; activity change, negative = inhibition: at 46.1 µM (top of the series)
Summary of the method: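 Reporter activity after DNA damage by 5-fluorouridine is monitored. Compound-treated cells incubate 16 hr at 37 °C, then ONE-Glo is added for 30 min before luminescence reading.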
On the % scale 0 is the no-effect control and ±100 the full control effect; potency means the concentration at half of the fitted maximal effect.

| SMILES | activity change, negative = inhibition | Potency |
| --- | --- | --- |
| Cc1cc(C)c2oc(-c3ccc(C)c(NC(=S)NC(=O)/C=C/c4ccco4)c3)nc2c1 | inactive: 22.9% | – |
| CN(C)/C=C/C(=O)c1cccc(Cl)c1 | – | inconclusive: 16.4 µM [activator, partial curve, poor fit] |
| CCc1cc2c(=O)n(-c3ccc(Br)cc3)cnc2s1 | – | inconclusive: 7.31 µM [activator, partial curve] |
| CCOc1ccc(-c2cc(C(=O)N3CCN(c4ccccn4)CC3)c3ccccc3n2)cc1 | – | inconclusive: 1.16 µM [activator, full curve] |
| O=S(=O)(c1cccc(-c2nn3c(-c4ccncc4)nnc3s2)c1)N1CCOCC1 | inactive: 0.0445% | – |
| CC(C)(C)OC(=O)N1CCC[C@H]1C(=O)Nc1ccc(Br)cc1 | – | inconclusive: 5.17 µM [inhibitor, full curve] |
| CCN(CC)CCNC(=O)c1cc2c(-c3cccc(OC)c3)nn(C)c2s1 | – | inconclusive: 16.4 µM [activator, partial curve] |
| Cc1cccc(C)c1NC(=O)CCCSc1nnc(-c2ccc(Cl)cc2)n1-c1ccccc1 | – | active: 20.6 µM |
| Cc1ccc(NC(=O)N2CCCC2)cc1Cl | – | inconclusive: 5.17 µM [activator, single point] |
| Cc1cccc(N(Cc2ccccc2)C(=O)c2ccc(C)c(S(=O)(=O)N3CCOCC3)c2)c1 | – | inconclusive: 29.1 µM [inhibitor, single point] |
| O=C(C1=NNCC1c1ccccc1)C1OC1c1ccccc1 (configuration not stated) | inactive: 20.7% | – |
| COC(=O)c1ccc(C23CC4(C2)[C@H](CN(Cc2ccc(C(F)(F)F)cc2)[C@@H]4c2ccccc2)C3c2ccc(C(F)(F)F)cc2)cc1 (some centres not stated) | – | inconclusive: 3.26 µM [inhibitor, single point] |
| COc1ccc(-c2n[nH]c(C)c2-c2cnn(-c3ccccc3)c2)c(O)c1C | – | inconclusive: 23.1 µM [inhibitor, partial curve] |
| COc1ccccc1C(C)Nc1nc(-c2cccnc2)nc2ccccc12 (configuration not stated) | inactive: -8.71% | – |
| CSc1ccc(/C=N/Nc2nc(C)cc(=O)[nH]2)cc1 | – | inconclusive: 14.6 µM [activator, partial curve] |
| O=C(CN1CCN(c2ccccn2)CC1)N(c1ccccc1)c1ccc2ccccc2c1 | – | inconclusive: 16.4 µM [inhibitor, single point] |
| CCCCn1c(SCC(N)=O)nc2c(sc3ccccc32)c1=O | – | inconclusive: 20.6 µM [inhibitor, single point] |
| CCOC(=O)Nc1sc2c(c1C#N)CCC(C)C2 (configuration not stated) | – | inconclusive: 10.3 µM [activator, partial curve] |
| CC(C)(C)C(=O)NC(=S)NNC(=O)c1ccc(Cl)cc1Cl | – | inconclusive: 20.6 µM [inhibitor, single point] |
| C=CCN(C(=O)CCc1ccccc1OC)c1nc(-c2ccc(S(C)(=O)=O)cc2)cs1 | – | inconclusive: 29.1 µM [inhibitor, single point] |
| c1cn2c(NC3CCCCC3)c(-c3ccc(SC4CCCCC4)cc3)nc2cn1 | – | inconclusive: 6.31 µM [inhibitor, single point] |
| COc1ccc(-c2n[nH]c(=S)n2-c2ccccc2C)cc1OC | inactive: -1.9% | – |
| CCOC(=O)c1c(CSc2ccccc2)n(C)c2cc(Br)c(O)c(CN(C)C)c12 | inactive: 6.08% | – |

Retrieved one by one from the list above (2):

| SMILES | activity change, negative = inhibition | Potency |
| --- | --- | --- |
| C=CCN(C(=O)CCc1ccccc1OC)c1nc(-c2ccc(S(C)(=O)=O)cc2)cs1 | – | inconclusive: 29.1 µM [inhibitor, single point] |
| CCCCn1c(SCC(N)=O)nc2c(sc3ccccc32)c1=O | – | inconclusive: 20.6 µM [inhibitor, single point] |

(more compounds)

| SMILES | activity change, negative = inhibition | Potency |
| --- | --- | --- |
| COc1ccc(-c2c[nH]c(=O)[nH]c2=O)cc1OC | – | inconclusive: 16.4 µM [activator, partial curve, poor fit] |
| O=C(/C=C/Nc1ccccc1)c1ccccc1 | – | inconclusive: 0.82 µM [activator, full curve] |
| COc1ccccc1N=Cc1nc(-c2ccccc2)oc1OC(C)=O | inactive: -2.92% | – |
| COc1ccc2[nH]c3c(c2c1)CCN1C(=O)C(CC(=O)NCCc2ccccn2)C[C@H](C(=O)N2CCCCC2)[C@@]31C (some centres not stated) | – | inconclusive: 32.6 µM [inhibitor, partial curve, poor fit] |
| COc1ccc(/C=N/Nc2nncc3ccccc23)c(OC)c1 | – | inconclusive: 8.2 µM [activator, partial curve] |
| CC1(c2ccc(Cl)cc2Cl)NC(=O)N(CC(=O)Nc2cccnc2Cl)C1=O (configuration not stated) | – | inconclusive: 7.3 µM [inhibitor, partial curve, poor fit] |
| CN1CCN(c2nc(-c3cccs3)cs2)CC1 | – | inconclusive: 23.1 µM [activator, partial curve, poor fit] |
| CC(C)(C)c1cc(Br)c(O)c(N=Nc2ccc(S(=O)(=O)N3CCOCC3)cc2)c1 | – | inconclusive: 14.6 µM [inhibitor, partial curve, poor fit] |
| COc1ccc2c3c(cccc13)C(=O)CC2 | inactive: 5.76% | – |
| Cc1nn(-c2ccccc2)c2sc(C(=O)c3c(N)n(C)c(=O)n(C)c3=O)cc12 | – | inconclusive: 29.1 µM [inhibitor, single point] |
| O=C(COC(=O)c1nn(CCO)c(=O)c2ccccc12)Nc1ccc(Cl)c(Cl)c1 | inactive: 5.85% | – |
| COc1ccc(OC[C@@H](O)CNC(=O)c2cccc3c2C(=O)c2ccc(-c4ccc(F)cc4OCc4ccccc4)cc2S3(=O)=O)cc1 | – | active: 2.31 µM |
| FC(F)(F)c1cccc(-c2nnc(-c3ccccc3)c(N3CCOCC3)n2)c1 | – | inconclusive: 14.1 µM [inhibitor, single point] |
| CCCCNC(=O)c1nn2c(C(F)(F)F)cc(-c3ccccc3)nc2c1Br | inactive: -10.2% | – |
| COc1cc(CN(C(=S)NCC(=O)NC2CCCC2)C2CCCC2)cc(OC)c1OC | – | inconclusive: 5.8 µM [inhibitor, full curve] |
| Cc1cc(C)cc(C(=O)NC(=S)Nc2cccnc2)c1 | – | inconclusive: 8.2 µM [activator, partial curve, poor fit] |
| Nn1c(SCc2cccc(F)c2)nnc1-c1ccncc1 | – | inconclusive: 29.1 µM [activator, single point] |
| Oc1ccc(NCc2ccccc2OCc2ccccc2)cc1 | – | inconclusive: 8.2 µM [inhibitor, partial curve, poor fit] |
| CN1CCN(S(=O)(=O)c2ccc(-c3noc(C4CCN(S(C)(=O)=O)CC4)n3)cc2)CC1 | inactive: -2.36% | – |
| CC1CCN(S(=O)(=O)c2cc(C(=O)N3CCN(c4ncccn4)CC3)ccc2Br)CC1 | – | active: 18.4 µM |
| CCC(c1nnnn1C1CCCCC1)N(Cc1ccco1)Cc1cc2ccc(OC)cc2[nH]c1=O (configuration not stated) | – | inconclusive: 29.1 µM [inhibitor, single point] |
| Cc1ccc(OCC(=O)c2cc(C)n(-c3ccccc3)c2C)c([N+](=O)[O-])n1 | inactive: -14.9% | – |
| COc1ccc2cc(OCC(=O)NNC(=O)Nc3ccc(C(C)=O)cc3)ccc2c1 | – | inconclusive: 18.3 µM [activator, partial curve] |

| SMILES | activity change, negative = inhibition | Potency |
| --- | --- | --- |
| COc1ccc(CCNC(=O)c2cnccn2)cc1 | – | inconclusive: 18.4 µM [activator, single point] |
| CC(C)c1nc2scc(-c3ccc(Cl)cc3)c2c(=O)n1N | – | inconclusive: 20.6 µM [activator, partial curve, poor fit] |
| Cn1nc(-c2ccc3c(c2)OCCO3)c2ccccc2c1=O | – | inconclusive: 10.3 µM [inhibitor, partial curve] |
| Cc1cccc(CS(=O)(=O)Cc2ccc(C(=O)NC3CCCCCC3)o2)c1 | inactive: -10.3% | – |
| COCCNc1nnc(SCC(=O)c2c[nH]c3ccccc23)s1 | inactive: -1.29% | – |
| CC(C)NS(=O)(=O)c1ccc(NC(=O)C(C)OC(=O)C2CCC2)cc1 (configuration not stated) | – | inconclusive: 23.1 µM [activator, partial curve, poor fit] |
| CC(C)C(=O)Nc1cccc(NC(=S)NC(=O)c2ccc([N+](=O)[O-])cc2)c1 | inactive: -15.9% | – |
| O=C(Nc1ccc(OCC(F)(F)C(F)F)cc1)c1ccncc1 | – | inconclusive: 20.6 µM [inhibitor, partial curve] |
| O=c1cc(N2CCCCC2)c(-c2ccccc2)nn1Cc1cccc(Cl)c1 | inactive: 9.36% | – |
| O=C(Cn1cnc2c(NCc3ccccc3)ncnc21)NCc1ccc2[nH]ccc2c1 | – | inconclusive: 29.1 µM [activator, single point] |
| Cc1cc(Nc2ccc(C(C)C)cc2)n2ncnc2n1 | – | inconclusive: 20.6 µM [activator, single point] |
| COc1ccc(CCNC(=O)c2cccc(NS(=O)(=O)c3ccccc3F)c2)cc1OC | inactive: 1.7% | – |
| Cc1cc(C(F)(F)F)c2sc(N)nc2n1 | – | inconclusive: 20.6 µM [activator, single point] |
| Cc1ccc(O)c(C(=O)c2cc(C#N)c(=O)n(C(C)c3ccccc3)c2)c1 (configuration not stated) | – | inconclusive: 29.1 µM [inhibitor, single point] |
| CC1=[N+]([O-])C(C)(C)C(c2ccc(Br)cc2)=[N+]1[O-] | inactive: -3.52% | – |
| CCOC(=O)C(O)C1CCc2c([nH]c3ccc(C)cc23)C1=O (configuration not stated) | – | inconclusive: 13 µM [activator, partial curve] |
| CN(c1ccc(C(=O)Nc2ccc3c(c2)OCO3)cc1)S(C)(=O)=O | – | inconclusive: 4.11 µM [activator, full curve] |
| O=C(N/N=C/c1cn(-c2ccccc2)nc1-c1cccnc1)c1ccccc1 | – | inconclusive: 29.1 µM [inhibitor, single point] |
| Cc1cc2oc(=O)cc(CN3CCCc4ccccc43)c2cc1C | – | inconclusive: 11.2 µM [activator, partial curve, poor fit] |
| CN(C)c1ccc(/C=C(/NC(=O)c2ccccc2)C(=O)N/N=C/c2ccc([N+](=O)[O-])c(O)c2)cc1 | – | inconclusive: 16.4 µM [activator, partial curve] |
| Cc1nn(-c2ccc(Cl)cc2)c2[nH]c(=O)c(CNCc3ccc4c(c3)OCO4)cc12 | – | inconclusive: 14.6 µM [inhibitor, partial curve, poor fit] |
